Reference: article PMC4659569
No constants are given. Whether binding was seen depends on the method and setting. In cells and extracts the contact can be indirect. Some binding calls cover weakened binding; strength is not graded here. Sequences can lack the tags named with a protein.

Target: T1, Spo73-Envy (S. cerevisiae) (UniProt P40031)
T1 sequence: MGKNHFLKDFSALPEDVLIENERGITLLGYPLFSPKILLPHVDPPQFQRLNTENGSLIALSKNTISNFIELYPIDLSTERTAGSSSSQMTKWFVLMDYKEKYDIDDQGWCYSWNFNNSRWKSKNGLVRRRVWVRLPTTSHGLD
Assay: co-IP; lysates of sporulated yeast cells in IP buffer (150 mM KCl, 1 mM EDTA, 50 mM HEPES pH 7.6, 1 mM DTT, 0.5% Nonidet P-40); Spo73-Envy precipitated with GFP-Trap A beads, 2 hours at 4°C; Spo71-myc detected with anti-myc blot

B1: Spo71-myc (protein, UniProt Q03868 1-1245)
chain: MDSIVNVVEDDVKYAQRVTSFSSPQNANVKVFTIPRHSFTAFRLSYVSPTELSACSQVTLLGGIPKQWYADQNNQVWKLLTKISLRKVRKQSDMLRRYGYGTIYKKRVGKIPTALYLRKHFTWSYEDNTSIHNGHRLKEAEMEMKRTRSSPVQKSEYKLSLPRRCRSSSDQNFMRQELLKEKKSELSRNNSLPLIDTAQAVDIHPVLHEEDQENTNKRNKSLLSNLKRKDLGESKSISRKDYSHFDRIPSPSSARSVGETDFNYNREPSEDTLRYPDSIIEVTNRTSPAPNSILSRSGQFVNSNDLSDGFSTSNTINNVGLNANEKIFFNALQSMEKENLMLWKTSQKYGTYLDERRKSADAFQKRERGSCVDIGKLHSSHLPFINILPPWPTELTEEERIIHDRLASKHSHHIRKHVHNARNKTSCKIKDSVGTFLGMTNSLTNKATVKKRTGQILKKEKMLVMVKEAIQNKVPLPNFSENECFDTRVSERWKEYIVIARSTGRFDPPILLQFYRHRHIPEIEDISSIATKYHRNPLDFFLSRNCIVKFYSSLDKTISIQKPDKRLGGFIDESIEKKDELKHYSPIKIFILRCSSIRSSGRWYKFLLESLDRQLFTPAINLKIPLTEISIKINLNEIIFQKLIDLGKQEKDRLKICFLQRGYKIFQHPILRYFTVAILEKLKLAHYDYLIRKWDTENPVLGCALKRYDRLEWIPCDEDSLVTGIFAFCQSHLIQYRPIANRLRETKSLEGKCLKEPTPIEGFLIRLTDKYGSARTNFGKYSISTAYFFTCENLLFSMKAYRANPPLPIDSMIDDTSTEIEKEEIWKQWKKIPEVYEQQPYPLDTNDHIEWMNCQTTQSEYDSRDFYAFHCFHRRIDQILKTDNVIDLTEVKDIYQGTRTDYEADKIKYGVYKEASEIFWHRNYEIDDVSRSVINIETSNGLLLKLLATSATVAEEWVIKLKQMISYWKNKQREDTERLLKIRRSNAGLLMLNGEEETKIGENTLRWIVEHGRADEQTFNANGISLSRPLIQKGPLYQKPHKHSVFSKYYVVLISGFIVLFHCFHRSTTGFAKEVLEYAHYVTIPIDDCYLYSGTTTELDLLQRDRTFDEINYGSHALPRVYGDGWRSVEDESSRCFTLWFGTRRALSSNRLQKKGNEKQYTQDYGRQDNNIDPPSAPEADLNNSNVPSNTDKIHFTKKLGVSGKSMVFMARSRQERDLWVMSIYYELERLRRTASTSNSRNQTM
B1 was tested, and the binding was “binds”.
